# US20160289663A1, “NOVEL CHIMERIC GENE ATF7IP-PDGFRB OF ACUTE LYMPHOBLASTIC LEUKEMIA” (priority 2013, published 2016)
# Test system: ATF7IP-PDGFRB-expressing Ba/F3 cells
# Assay: Cell proliferation (WST) assay, ATF7IP-PDGFRB Ba/F3 transfectants without conditioned medium
# Conditions: Mus musculus, BaF3, 24 h, read-out: calculated IC50 value
# Method: (A) ATF7IP-PDGFRB-expressing Ba/F3 cells in the absence of WEHI-3-conditioned medium (CM) and Mock Ba/F3 cells in the presence of CM were each treated with or without either the PI3 kinase inhibitor LY294002 or the MEK inhibitor PD98059 at the indicated concentrations for 24 hours. Subsequently, the number of living cells was estimated for each type of the cells by WST assay in the same way as in FIG. 5B. The ratio of the OD value obtained from the inhibitor-treated cells relative to that obtained from the inhibitor-untreated cells was calculated and expressed as the means±SEM of triplicates. (B) ATF7IP-PDGFRB-expressing Ba/F3 cells were treated with PD98059 in the presence or absence of CM, and examined in the same way as in (A). […]
# The data were analyzed by F-test. P values less than 0.05 were considered significant. All experiments were performed at least three times to calculate means and SEM values.
structure (smiles),measurement,value
Cc1ccc(NC(=O)c2ccc(CN3CCN(C)CC3)cc2)cc1Nc1nccc(-c2cccnc2)n1 [imatinib],IC50,45.6 nM
